# From US20030144204A1, “Akt-based inducible survival switch” (Baylor College of Medicine, priority 2001, published 2003)
# For at least one compound, name, drawing or mass did not settle the structure.
# Test system: Jurkat.iAkt cells
# Assay: Apoptosis by propidium iodide staining and flow cytometry (hypodiploid cells)
# Format: cell-based, human
# Details: wortmannin 0.03-10 μM, 2% or 10% FBS, 9 hours
# Method: Jurkat.iAkt were serum starved for 24 hours followed by pre-treatment with AP22783 in 0, 2 or 10% FBS for 40 min. After incubation with apoptosis-inducing stimuli for the periods indicated, cells were harvested and washed twice in ice-cold PBS and fixed in 70% ethanol. Cells were stained in 50 μg/ml propidium iodide and 100 μg/mlRNase A for 30 min at 37° C., and hypodiploid cells were quantitated by flow cytometry using a Beckman-Coulter EPICS XL-MCL.
# Jurkat.iAkt cells were given various apoptotic insults in the presence or absence of rapalogs. Initially, the protective effects of iAkt were studied on staurosporine (STS)-induced apoptosis. […] Following serum starvation for 24 hours, Jurkat.iAkt cells were treated with 0, 0.5, or 2.0 μM STS with or without AP22783 (400 nM) for 6 hours in the absence of serum. Cell death was monitored using propidium iodide (PI) staining and flow cytometry (FCM) by quantitation of subdiploid cells.
# The effects of AP22783 treatment following PI3K inhibition of Jurkat.iAkt cell were studied.
# Finally, the anti-apoptotic effects of iAkt on protection from direct DNA damaging agents were examined. The anti-tumor agent, etoposide (VP16), is widely used as a chemotherapeutic drug that works by inhibiting DNA topoisomerase II, which can induce apoptosis in a variety of cell types. […]
smiles,measurement,value
COC[C@H]1OC(=O)c2coc3c2[C@@]1(C)C1=C(C3=O)[C@@H]2CCC(=O)[C@@]2(C)C[C@H]1OC(C)=O [wortmannin],cell death,increasing cell death in a very clear dose-dependent manner
